Assay [1] addresses TAA1-Flag (Arabidopsis thaliana) (UniProt Q9S7N2). Description: co-IP; coexpressed in Arabidopsis Col-0 protoplasts; anti-Flag beads, 4 °C for 4 h; 50 mM Tris-HCl pH 7.5, 150 mM NaCl, 5 mM EDTA, 5% glycerol, 1% TritonX-100; western blot. (In general: In western blotting, separated proteins are transferred to a membrane and probed.)
The target in assay [2] is TAA1-His (Arabidopsis thaliana) (UniProt Q9S7N2). Description: pull-down; TAA1-His or His-Sumo held on Ni-NTA resin, incubated with GST-TMK4 KD in 20 mM HEPES pH 7.5, 40 mM KCl, 1 mM EDTA, 1% glycerol, 0.1‰ TritonX-100, 2 h at 4 °C; detected with GST antibody; both purified.

Sequences of proteins named here, by UniProt entry; tags and fusion partners are left off.
UniProt Q9S7N2: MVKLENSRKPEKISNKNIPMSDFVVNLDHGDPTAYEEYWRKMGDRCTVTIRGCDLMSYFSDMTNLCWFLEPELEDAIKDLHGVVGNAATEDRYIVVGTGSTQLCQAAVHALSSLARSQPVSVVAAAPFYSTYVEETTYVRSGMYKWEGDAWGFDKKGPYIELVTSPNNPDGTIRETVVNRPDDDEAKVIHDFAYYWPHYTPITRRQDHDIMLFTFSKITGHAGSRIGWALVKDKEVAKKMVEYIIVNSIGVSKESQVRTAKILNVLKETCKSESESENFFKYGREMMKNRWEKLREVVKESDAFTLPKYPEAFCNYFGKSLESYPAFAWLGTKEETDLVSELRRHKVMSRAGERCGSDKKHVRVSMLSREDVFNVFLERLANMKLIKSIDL
UniProt Q9LR29: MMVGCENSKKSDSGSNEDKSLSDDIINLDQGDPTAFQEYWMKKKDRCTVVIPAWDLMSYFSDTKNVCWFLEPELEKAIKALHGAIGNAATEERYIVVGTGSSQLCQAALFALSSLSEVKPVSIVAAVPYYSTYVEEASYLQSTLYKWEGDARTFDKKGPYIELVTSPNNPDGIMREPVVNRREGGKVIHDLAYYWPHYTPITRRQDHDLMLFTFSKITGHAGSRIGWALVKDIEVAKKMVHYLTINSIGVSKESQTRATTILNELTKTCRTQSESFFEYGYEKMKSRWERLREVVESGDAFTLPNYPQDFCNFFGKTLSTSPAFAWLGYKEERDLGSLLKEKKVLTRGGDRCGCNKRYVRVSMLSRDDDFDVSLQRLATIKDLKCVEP

These are yes or no findings as the source states them, for the method shown. For some assays here: In cells and extracts the contact can be indirect. Some binding calls cover weakened binding; strength is not graded here. For some assays here: Tags and fused reporters may be left off the sequences shown.

Turning to “TAR1-GFP (Tryptophan Aminotransferase Related protein 1) (from UniProt Q9LR29 1-388) (enzyme)”, the binding result in assay [1] was “binds”.

B1: GST-TMK4 kinase domain (KD) (domain or fragment, UniProt Q9LK43 587-928)
chain: GGFGVVYAGELHDGTKTAVKRMECAAMGNKGMSEFQAEIAVLTKVRHRHLVALLGYCVNGNERLLVYEYMPQGNLGQHLFEWSELGYSPLTWKQRVSIALDVARGVEYLHSLAQQSFIHRDLKPSNILLGDDMRAKVADFGLVKNAPDGKYSVETRLAGTFGYLAPEYAATGRVTTKVDVYAFGVVLMEILTGRKALDDSLPDERSHLVTWFRRILINKENIPKALDQTLEADEETMESIYRVAELAGHCTAREPQQRPDMGHAVNVLGPLVEKWKPSCQEEEESFGIDVNMSLPQALQRWQNEGTSSSTMFHGDFSYSQTQSSIPPKASGFPNTFDSADGR
For B1, the binding entry in assay [2] is reported as “binds”.

(Values after article PMC6997161.)
